Strings that start with PEPTIDE1 are HELM notation: dots part the residues, brackets hold end groups and non-standard residues.
Experiment: general procedure: Boc solid-phase peptide synthesis; chloromethylated resin or hydroxymethyl resin

PEPTIDE1{[dV].G.C.K.N.F.F.W.K.T.F.T.S.C}$PEPTIDE1,PEPTIDE1,3:R3-14:R3$$$V2.0
oxidative folding yield (oxidative folding step, from reduced form): 54.3%
isolated yield (whole synthesis): 24.8%
